Screen size: about 300,000 compounds; about 5,400 (1.8%) were called active. Inconclusive results, whose numbers are uncertain, are shown with a selection of clear calls. Calls follow the shape of the full dose curve; tested in HEK293 cells. Potencies beside an inconclusive call are fits to weak or partial responses and may not hold up.
Assay: qHTS for inhibitors of binding or entry into cells for Marburg Virus
Conditions: Marburg virus pseudotyped entry inhibition, cell reporter; activity change, negative = inhibition: at 37.8 µM (top of the series) unless noted
% is scaled to controls: 0 for no effect and ±100 for the full control effect; potency is read from the fitted curve at half-maximal effect.

SMILES | activity change, negative = inhibition | Potency
O=C(NN=Cc1ccc(O)cc1)C(=O)NN=Cc1ccc(O)cc1 | inactive: 0.925% [at 46.1 µM] | –
CN(C)C(=O)/C=C\c1cn(-c2ccccc2)nc1-c1ccc2c(c1)OCCO2 | – | inconclusive: 11.2 µM [inhibitor, partial curve, poor fit]
O=C(Nc1ccccn1)c1ccc(NC(=O)c2ccco2)cc1 | – | inconclusive: 0.447 µM [activator, single point]
Fc1ccc(Nc2nnc(C(F)(F)F)s2)cc1Cl | – | inconclusive: 15.8 µM [inhibitor, single point]
Cc1cc(N(C)NC(=S)Nc2ccccc2)nc(C)n1 | inactive: 18.3% | –
Cc1cccc(N2CCN(C(=O)c3ccccc3OCc3c(C)noc3C)CC2)c1C | – | inconclusive: 22.4 µM [inhibitor, single point]
Cc1ccc(-n2c3c(c(=O)[nH]c2=O)C(NC(=O)c2ccccc2F)(C(F)(F)F)C(=O)N3)cc1C (configuration not stated) | inactive: -7.38% [at 46.1 µM] | –
CN(C)S(=O)(=O)c1cc(NC(=O)CSc2nn(-c3ccc(Cl)cc3)c(=S)s2)ccc1Cl | – | inconclusive: 12.6 µM [inhibitor, partial curve, poor fit]
COC(=O)[C@@]1(Cc2ccc(OC)cc2)[C@@H]2C(=CC(=O)[C@H]2CC(=O)C(=O)N(C)C)CN1C(=O)c1ccccc1 | – | inconclusive: 14.6 µM [inhibitor, partial curve, poor fit]
O=C(Nc1ccccc1)c1ccccc1N=Cc1ccccc1O | – | inconclusive: 2.06 µM [activator, partial curve, poor fit]
CC1(C)C(c2ccccc2)=NC(c2cccnc2)N1O (configuration not stated) | – | inconclusive: 0.651 µM [activator, single point]
Cc1cc(NC(=O)c2cnn3c(C(F)(F)F)cc(-c4ccccc4)nc23)no1 | – | inconclusive: 20.6 µM [inhibitor, single point]
CC(C)(C)c1ccc(C(=O)NCCCNC(=O)c2cccnc2)cc1 | – | inconclusive: 31.6 µM [activator, single point]
Cc1ccc(Cn2c(=N)c(C(=O)NCC3CCCO3)cc3c(=O)n4cccc(C)c4nc32)cc1 (configuration not stated) | – | inconclusive: 7.94 µM [inhibitor, partial curve, poor fit]
Cc1nc2ccccc2cc1C(=O)Nc1ccccc1Cl | – | inconclusive: 20 µM [activator, single point]
CC(C)(C)c1ccc(C(=O)CCC(=O)OCC(=O)NCCc2ccc(S(N)(=O)=O)cc2)cc1 | – | inconclusive: 5.62 µM [activator, partial curve, poor fit]
Cc1ccc(Cn2c(SCC(=O)NCC3CCCO3)nc3ccsc3c2=O)cc1 (configuration not stated) | inactive: -10.8% [at 46.1 µM] | –

Another view of two compounds above.
Cc1ccc(Cn2c(=N)c(C(=O)NCC3CCCO3)cc3c(=O)n4cccc(C)c4nc32)cc1 (configuration not stated)
  Potency: inconclusive: 7.94 µM [inhibitor, partial curve, poor fit]
Cc1nc2ccccc2cc1C(=O)Nc1ccccc1Cl
  Potency: inconclusive: 20 µM [activator, single point]

Reference: PubChem BioAssay AID540276 (National Center for Advancing Translational Sciences (NCATS), 2011)
